Laboratory results published in paper PMC8155215, “The splicing factor XAB2 interacts with ERCC1-XPF and XPG for R-loop processing”.
No constants are given. Whether binding was seen depends on the method and setting. In cells and extracts the contact can be indirect. Here binding means that the protein was enriched with, or labelled near, the bait; the list need not be complete. Where a sequence is shown, tags or fusion partners need not be part of it.

T1: biotin-tagged XAB2 (XPA-binding protein 2) from aviXab2+/+;birA knock-in mice (mouse) (UniProt Q9DCD2)
T1 sequence (chain, biotin on the 15aa Avitag (added in vivo by the BirA ligase)): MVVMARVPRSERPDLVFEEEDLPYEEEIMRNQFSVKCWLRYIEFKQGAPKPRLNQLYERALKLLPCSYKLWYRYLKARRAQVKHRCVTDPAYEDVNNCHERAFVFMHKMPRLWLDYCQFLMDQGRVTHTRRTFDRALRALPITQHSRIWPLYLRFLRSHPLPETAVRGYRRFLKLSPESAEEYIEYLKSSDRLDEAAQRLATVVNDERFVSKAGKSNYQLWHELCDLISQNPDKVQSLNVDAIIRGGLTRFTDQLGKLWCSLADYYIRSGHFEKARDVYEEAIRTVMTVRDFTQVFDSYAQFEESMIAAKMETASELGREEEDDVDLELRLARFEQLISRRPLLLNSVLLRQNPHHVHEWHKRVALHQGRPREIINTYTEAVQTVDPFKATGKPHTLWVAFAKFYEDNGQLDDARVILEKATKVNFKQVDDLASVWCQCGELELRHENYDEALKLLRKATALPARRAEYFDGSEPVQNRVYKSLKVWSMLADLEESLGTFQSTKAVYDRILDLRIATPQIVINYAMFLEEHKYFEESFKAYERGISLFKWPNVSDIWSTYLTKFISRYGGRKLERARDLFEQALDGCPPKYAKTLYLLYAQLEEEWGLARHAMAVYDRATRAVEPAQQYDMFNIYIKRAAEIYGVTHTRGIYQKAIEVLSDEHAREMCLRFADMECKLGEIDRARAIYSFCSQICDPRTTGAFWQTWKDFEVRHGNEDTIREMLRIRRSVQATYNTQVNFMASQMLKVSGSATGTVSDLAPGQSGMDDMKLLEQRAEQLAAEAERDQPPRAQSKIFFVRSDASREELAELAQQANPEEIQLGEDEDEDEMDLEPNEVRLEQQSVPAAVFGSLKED

B1: WDR43 (protein, UniProt Q6ZQL4 1-677)
chain: MAAGGGGSYDPLAPAGVPCAFSPDSQAYFALASSDGQLRVWETANNRLHQEYVPSAHLSGTCTCLAWAPARLQAKESHQRKKRKSEVTGTKDQADLLALGTAVGSILLYSTVRGELHSKLTSGGHENRVNCIQWHQDNDCLYSCSDDKYIVEWSTQTCKVKCKWKGDNSSVSSLCISPDGKMLLSAGRTIKLWVLETKEVYRHFTGHATPVSSLRFTTIRPNESQPSDGITGLYFLSGAVHDRLLNVWQVRSENKEKSAVMSFTVTDEPVYVDLTLSENKEEPVKLAVVCRDGQVHLFEHILNGHCKKPLTSNCTIQIATPGKGKKVTPKPIPILAASFCLDKMSLLLVYGNWFQPTIERVALNSKDTHICLERDISNCWAPTVETAITKVKTPVMNSEAKVLVPGIPGHHAPIKLPPAQPKEAENKRKLGSTEATIEERLGAMDLDRKGRKDDLQTNSFAVLLTQGLESNDFEILNKVLQTKNVNLIKRTVLRIPLRVVIPLLQELTKRLQGHPNSAALMIQWLKCVLTIHASYLSTLPDLVEQLGTLYQLMESRVKTFQKLSNLHGKLILLVTQVTASEKSKKMTSPGQKAKLVYEEESSEEESDDEVPEKDSDDNWDEDEDKDSEKDEGVDEDNEEEDEDMEDKEENEEDREVSSEKELNGDSDLDPENESEEE
B2: WDR75 (protein, UniProt Q3U821 1-830)
chain: MVEEGVRVVRCGGSRLNFRRAVFSVDSKYIFCVSGDFVKVYSTTTEECVHILHGHTDLVSGILVNPSNHLQLYSCSFDGTIKLWDYVDGILIKTFTIGPKLHAFFIPLHAEDSVFLTISKEEPDIFQLVSVKLPKSTSQDVEARQLTFVLDYINRSPKCIAFGNEGEYVAAVRDFYLSVYFFKKKKTCNFTLPSTKNKKNAKNKFTCVACHPKEDCIASGHMDGKIRLWRNFHSDQKYTYTCLHWHHDMVMDLAFTVTGTSLLSGGRECVLVEWRDGSEKNKEFLPRLGSSIEHISVSPAGDLFCTSHSDNKITVIHRNLDASAVIQGLVKDRSISTGLMVDPRTKALVLNGKPGHLQFYSLQGDKQLYNLDIIQQEYINDEGLTQTELTKAAFGCSGTWLATVEQRQENENELELQMKLWNYSKKTQGFVLNTKIAMPHDDHITALCFNNAESYEKPILVTASRDGHFKVWILTDDSDIYKKAIAWTCDFVGSYHKYQATNCCFSEDGSLLAVSFEEIVTIWDSQTWELKCTFCQRAGKIRHLCFGRLTCSKYLLGTTDNGILCCWNLLSCSIQWSAKLNVRVMEPDPYSDHVAAVAQSSAGSDLFVFKPSEPRPLYIQKNVSREEVQWGVFVPRDVPESFTSETHQWLNRSQFYFLTKSQSLLTFSTKSPEEKLTPTSKQLLAEESLPTTPFSFILGKHRQQQGAKLTETSENELVQLPLTENIPAITELLHTPAHVLPSASFLCSLFVNSLLLSKETKSAEEVPDDVDMEGNKESDDSDEEYDLTEKDKETNNNTDLGEDAIHQLSKSEEKELRKFRKVDYSWLTAL
B3: XRN2 (protein, UniProt Q9DBR1 1-951)
chain: MGVPAFFRWLSRKYPSIIVNCVEEKPKECNGVKIPVDASKPNPNDVEFDNLYLDMNGIIHPCTHPEDKPAPKNEDEMMVAIFEYIDRLFNIVRPRRLLYMAIDGVAPRAKMNQQRSRRFRASKEGMEAAVEKQRVREEILAKGGFLPPEEIKERFDSNCITPGTEFMDNLAKCLRYYIADRLNNDPGWKNLTVILSDASAPGEGEHKIMDYIRRQRAQPNHDPNTHHCLCGADADLIMLGLATHEPNFTIIREEFKPNKPKPCALCNQFGHEVKDCEGLPREKKGKHDELADSLPCAEGEFIFLRLNVLREYLERELTMASLPFPFDVERSIDDWVFMCFFVGNDFLPHLPSLEIREGAIDRLVNIYKNVVHKTGGYLTESGYVNLQRVQMIMLAVGEVEDSIFKKRKDDEDSFRRRQKEKRKRMKRDQPAFTPSGILTPHALGSRNSPGCQVASNPRQAAYEMRMQRNSSPSISPNTSFASDGSPSPLGGIKRKAEDSDSEPEPEDNVRLWEAGWKQRYYKNKFDVDAADEKFRRKVVQSYVEGLCWVLRYYYQGCASWKWYYPFHYAPFASDFEGIADMSSEFEKGTKPFKPLEQLMGVFPAASGNFLPPTWRKLMSDPDSSIIDFYPEDFAIDLNGKKYAWQGVALLPFVDERRLRAALEEVYPDLTPEENRRNSLGGDVLFVGKLHPLRDFILELYQTGSTEPVDVPPELCHGIQGTFSLDEEAILPDQTVCSPVPMLRDLTQNTAVSINFKDPQFAEDYVFKAAMLPGARKPATVLKPGDWEKSSNGRQWKPQLGFNRDRRPVHLDQAAFRTLGHVTPRGSGTSVYTNTALPPANYQGNNYRPLLRGQAQIPKLMSNMRPQDSWRGPPPLFQQHRFERSVGAEPLLPWNRMIQNQNAAFQPNQYQMLGGPGGYPPRRDDHRGGRQGYPREGRKYPLPPPSGRYSWN
B4: SNRP40 (protein, UniProt Q6PE01 1-358)
chain: MIEQQKRKGPELPLVPVKRPRHELLLGAAGAGPGAGPQQATPGALLQAGPPRCSSLQAPIMLLSGHEGEVYCCKFHPNGSTLASAGFDRLILLWNVYGDCDNYATLKGHSGAVMELHYNTDGSMLFSASTDKTVAVWDSETGERVKRLKGHTSFVNSCYPARRGPQLVCTGSDDGTVKLWDIRKKAAVQTFQNTYQVLAVTFNDTSDQIISGGIDNDIKVWDLRQNKLTYTMRGHADSVTGLSLSSEGSYLLSNAMDNTVRVWDVRPFAPKERCVKIFQGNVHNFEKNLLRCSWSPDGSKIAAGSADRFVYVWDTTSRRVLYKLPGHAGSINEVAFHPDEPIILSASSDKRLYMGEIQ
B5: NUP107 (protein, UniProt Q8BH74 1-926)
chain: MDRSGFGGMSSPVIRDAEVTRTARKHSAHKRVLIQANQEDNFGTATPRSQIIPRTPSSFRQPFVTPSSRSLLRHPDISYILGTEGRSPRHTQSSGYLGNLSMVTNLDDSNWAAAFSSQRLGLYTNTEHHSMTEDVNLSTVMLREDDPGEAASMSMFSDFLHSFLKHSSTTVFDLVEEYENICGSQVNILSKIVSRATPGLQKFSKTASMLWLLQQEMVTWRLLASLYRDRIQSSLEEENMFAIAGINASEKMVVETLFQRDSLVRQSQLVVDWLESIAKDEIGEFSDNIEFYAKSVYWENTLHSLKQRQLLSHMGSTRPLVTELDPDAPIRQKLPLDDLDREDEVRLLKYLFTLIRAGMTEEAQRLCKRCGQAWRAATLEGWKLYHDPNVNGGTELEPVEGNPYRRIWKISCWRMAEDELFNKYERAIYAALSGNLKQLLPVCDTWEDTVWAYFRVMVDSLVEQEIRTSVMTQDDSEELPREYMEANWTLEKVFEELQATDKKRVLEENQEHYHIVQKFLILGDVDGLMDEFSKWLSKSGSSLPGHLLRFMTHLILFLRTLGLQTKEEVSIEVLKTYIQLLISEKHTSLIAFYTCHLPQDLAVAQYALFLEGVTEFEQRHQCLELAKEADLDVATITKTVVENICKKDNGEFSHHDLAPSLDTGTTEEDRLKIDVIDWLVFDPAQRAEALRQGNAIMRKFLALKKHEAAKEVFVKIPQDSIAEIYNQWEEQGMESPLPAEDDNAIREHLCIRAYLEAHETFNEWFKHMNSAPQKPTLLSQATFTEKVAYEHREKKYEMDHNIWKGHLDALTADVKEKMYNVLLFVDGGWMVDVREDAEDDPERTHQMVLLRKLCLPMLCFLLHTILHSTGQYQECLQLADMVSSERHKLYLVFSKEELRKLLQKLRESSLMLLDQGLDPLGYEIQS

Target: T1, biotin-tagged XAB2 (XPA-binding protein 2) from aviXab2+/+;birA knock-in mice (mouse)
Assay: affinity purification with mass spectrometry; bXAB2 captured on M-280 streptavidin beads from high-salt nuclear extracts of P15 bXAB2 livers treated with benzonase and RNase A; BirA livers as control; three biological replicates, nLC-MS/MS

Binder | binding
B1 | binds
B2 | binds
B3 | binds
B4 | binds
B5 | binds
